Reference: patent US20240025959A1
Results are given in words; binding and its absence hold for the method and conditions named. Binding seen in cells or lysates may run through a third protein. Some binding calls cover weakened binding; strength is not graded here.

Chains of the proteins cited; added tags and fusions are not shown. Residues count along the entry.
UniProt Q9NPP4: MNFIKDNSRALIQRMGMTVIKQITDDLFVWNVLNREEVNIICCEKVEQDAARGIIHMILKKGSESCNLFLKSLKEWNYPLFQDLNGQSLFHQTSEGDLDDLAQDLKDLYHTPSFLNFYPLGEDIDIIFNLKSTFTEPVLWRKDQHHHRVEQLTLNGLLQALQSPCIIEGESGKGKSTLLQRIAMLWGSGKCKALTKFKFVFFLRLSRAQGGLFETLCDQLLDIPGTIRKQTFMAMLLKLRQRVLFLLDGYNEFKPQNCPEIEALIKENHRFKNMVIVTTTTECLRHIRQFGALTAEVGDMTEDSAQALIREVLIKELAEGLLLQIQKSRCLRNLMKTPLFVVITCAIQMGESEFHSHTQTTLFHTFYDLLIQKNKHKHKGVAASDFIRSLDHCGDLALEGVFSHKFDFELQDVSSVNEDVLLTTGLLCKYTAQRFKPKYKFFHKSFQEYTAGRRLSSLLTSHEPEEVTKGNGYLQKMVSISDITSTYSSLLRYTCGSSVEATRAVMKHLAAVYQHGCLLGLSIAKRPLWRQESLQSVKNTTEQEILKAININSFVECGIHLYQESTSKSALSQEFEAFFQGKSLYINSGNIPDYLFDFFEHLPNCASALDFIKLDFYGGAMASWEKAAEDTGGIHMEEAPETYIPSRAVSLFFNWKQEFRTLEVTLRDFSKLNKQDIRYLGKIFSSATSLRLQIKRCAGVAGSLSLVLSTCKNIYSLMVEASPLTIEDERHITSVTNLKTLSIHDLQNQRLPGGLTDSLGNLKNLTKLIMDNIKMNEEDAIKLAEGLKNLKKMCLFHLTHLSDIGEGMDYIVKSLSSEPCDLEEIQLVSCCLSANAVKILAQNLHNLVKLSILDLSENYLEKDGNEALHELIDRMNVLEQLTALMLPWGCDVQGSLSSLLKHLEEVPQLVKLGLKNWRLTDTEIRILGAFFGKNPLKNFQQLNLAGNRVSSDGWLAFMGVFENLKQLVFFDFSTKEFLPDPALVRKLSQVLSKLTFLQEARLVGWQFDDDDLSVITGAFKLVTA
UniProt P02649, residues 19-317: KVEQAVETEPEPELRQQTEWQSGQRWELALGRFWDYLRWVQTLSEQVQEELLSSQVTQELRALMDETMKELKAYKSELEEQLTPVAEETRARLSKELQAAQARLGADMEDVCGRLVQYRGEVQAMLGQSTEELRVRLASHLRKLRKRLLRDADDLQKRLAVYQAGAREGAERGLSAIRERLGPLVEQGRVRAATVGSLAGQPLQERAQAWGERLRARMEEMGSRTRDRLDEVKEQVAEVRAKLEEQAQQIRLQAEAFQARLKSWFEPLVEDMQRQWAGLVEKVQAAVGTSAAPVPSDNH
UniProt Q9BXM7: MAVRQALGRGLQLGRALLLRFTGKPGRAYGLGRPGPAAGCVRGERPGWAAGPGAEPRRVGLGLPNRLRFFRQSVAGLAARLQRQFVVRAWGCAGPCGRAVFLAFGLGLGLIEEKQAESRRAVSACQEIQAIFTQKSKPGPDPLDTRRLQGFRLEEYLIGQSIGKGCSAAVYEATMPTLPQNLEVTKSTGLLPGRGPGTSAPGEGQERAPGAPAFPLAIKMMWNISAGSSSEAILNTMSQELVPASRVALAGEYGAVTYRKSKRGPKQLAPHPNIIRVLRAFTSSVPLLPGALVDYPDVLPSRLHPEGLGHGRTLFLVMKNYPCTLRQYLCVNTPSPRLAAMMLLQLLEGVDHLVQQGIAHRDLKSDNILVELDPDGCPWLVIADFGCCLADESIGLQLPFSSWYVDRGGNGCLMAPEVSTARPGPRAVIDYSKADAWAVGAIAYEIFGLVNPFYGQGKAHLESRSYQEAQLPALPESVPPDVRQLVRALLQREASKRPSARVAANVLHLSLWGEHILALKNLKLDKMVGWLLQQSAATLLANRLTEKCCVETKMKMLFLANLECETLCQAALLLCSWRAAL
UniProt Q99497: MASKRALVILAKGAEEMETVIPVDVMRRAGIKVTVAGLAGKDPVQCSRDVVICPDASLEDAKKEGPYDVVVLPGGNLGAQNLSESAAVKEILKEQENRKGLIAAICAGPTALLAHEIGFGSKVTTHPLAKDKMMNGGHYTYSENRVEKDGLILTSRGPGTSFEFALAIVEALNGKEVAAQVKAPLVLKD
UniProt Q13148: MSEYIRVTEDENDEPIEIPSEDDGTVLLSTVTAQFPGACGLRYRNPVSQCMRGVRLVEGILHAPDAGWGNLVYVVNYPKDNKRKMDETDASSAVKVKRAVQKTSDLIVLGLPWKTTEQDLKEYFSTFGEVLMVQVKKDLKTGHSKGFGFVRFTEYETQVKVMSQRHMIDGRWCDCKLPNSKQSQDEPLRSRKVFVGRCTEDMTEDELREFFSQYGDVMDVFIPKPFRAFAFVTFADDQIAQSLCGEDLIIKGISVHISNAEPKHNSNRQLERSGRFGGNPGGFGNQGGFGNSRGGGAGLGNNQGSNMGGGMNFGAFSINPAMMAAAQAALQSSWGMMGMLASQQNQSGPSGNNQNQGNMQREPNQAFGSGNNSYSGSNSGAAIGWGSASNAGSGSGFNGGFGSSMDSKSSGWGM
UniProt O60260: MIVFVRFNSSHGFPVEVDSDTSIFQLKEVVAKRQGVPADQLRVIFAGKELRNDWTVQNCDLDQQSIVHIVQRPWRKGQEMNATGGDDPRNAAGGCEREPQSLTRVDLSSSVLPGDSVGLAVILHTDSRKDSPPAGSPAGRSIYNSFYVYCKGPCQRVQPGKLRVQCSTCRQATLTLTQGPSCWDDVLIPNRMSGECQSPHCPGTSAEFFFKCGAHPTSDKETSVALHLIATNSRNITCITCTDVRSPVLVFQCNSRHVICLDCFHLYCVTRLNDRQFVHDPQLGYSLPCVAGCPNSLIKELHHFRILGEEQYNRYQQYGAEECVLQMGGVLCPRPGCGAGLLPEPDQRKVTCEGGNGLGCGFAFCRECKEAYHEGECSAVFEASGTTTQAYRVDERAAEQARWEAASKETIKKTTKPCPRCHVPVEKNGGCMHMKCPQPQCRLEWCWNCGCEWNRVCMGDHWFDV
UniProt P51149: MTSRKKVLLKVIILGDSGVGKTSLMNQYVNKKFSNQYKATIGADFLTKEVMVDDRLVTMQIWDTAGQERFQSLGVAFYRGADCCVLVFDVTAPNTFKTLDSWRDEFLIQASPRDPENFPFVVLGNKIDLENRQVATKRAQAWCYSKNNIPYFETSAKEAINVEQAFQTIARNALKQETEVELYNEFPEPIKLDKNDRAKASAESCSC

T1: RAB32 (human) (UniProt Q13637)
T1 sequence (looked up): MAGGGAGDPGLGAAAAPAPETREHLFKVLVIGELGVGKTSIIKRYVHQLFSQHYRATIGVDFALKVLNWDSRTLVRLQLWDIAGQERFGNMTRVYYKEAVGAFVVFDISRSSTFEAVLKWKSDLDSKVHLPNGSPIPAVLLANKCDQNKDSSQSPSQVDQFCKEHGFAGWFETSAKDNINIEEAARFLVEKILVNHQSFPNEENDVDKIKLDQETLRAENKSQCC

T2: MKK3 (UniProt P46734)
T2 sequence (looked up): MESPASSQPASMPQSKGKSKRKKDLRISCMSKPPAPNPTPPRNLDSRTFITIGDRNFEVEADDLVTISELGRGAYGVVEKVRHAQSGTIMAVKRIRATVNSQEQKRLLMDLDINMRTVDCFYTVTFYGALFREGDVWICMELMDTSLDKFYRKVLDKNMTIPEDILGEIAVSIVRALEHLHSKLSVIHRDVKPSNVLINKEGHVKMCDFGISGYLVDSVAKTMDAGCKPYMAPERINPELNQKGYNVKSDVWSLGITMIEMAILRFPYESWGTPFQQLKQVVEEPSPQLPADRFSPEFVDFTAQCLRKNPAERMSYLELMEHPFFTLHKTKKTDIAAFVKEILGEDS

T3: MEKK3 (mitogen-activated protein kinase kinase kinase 3) (UniProt Q99759)
T3 sequence (looked up): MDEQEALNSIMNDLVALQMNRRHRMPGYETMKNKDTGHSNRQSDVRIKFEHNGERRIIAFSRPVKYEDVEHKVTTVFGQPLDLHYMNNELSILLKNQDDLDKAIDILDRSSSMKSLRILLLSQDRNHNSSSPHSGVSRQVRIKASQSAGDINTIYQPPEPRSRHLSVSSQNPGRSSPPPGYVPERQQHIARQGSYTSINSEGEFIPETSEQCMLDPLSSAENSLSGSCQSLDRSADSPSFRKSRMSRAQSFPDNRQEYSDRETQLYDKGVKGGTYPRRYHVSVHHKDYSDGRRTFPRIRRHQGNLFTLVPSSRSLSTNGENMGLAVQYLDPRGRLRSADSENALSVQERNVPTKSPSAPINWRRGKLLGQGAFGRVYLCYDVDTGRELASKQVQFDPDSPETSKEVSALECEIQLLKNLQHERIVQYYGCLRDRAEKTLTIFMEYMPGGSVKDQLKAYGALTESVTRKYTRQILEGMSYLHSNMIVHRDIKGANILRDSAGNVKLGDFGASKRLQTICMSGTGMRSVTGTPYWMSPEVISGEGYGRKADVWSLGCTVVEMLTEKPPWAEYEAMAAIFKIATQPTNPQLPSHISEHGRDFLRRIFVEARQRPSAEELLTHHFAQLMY


Legend:
[1] = target: NLRC4 (human) (UniProt Q9NPP4); experiment: co-IP with anti-Flag beads and immunoblot; HEK293T cells co-transfected with HA-Beclin 2 and a Flag-tagged plasmid (FIG. 25A)
[2] = target: APOE (UniProt P02649); experiment: co-IP with anti-Flag beads and immunoblot; 293T cells co-transfected with Flag-Beclin 2 and an HA-tagged plasmid (FIG. 35A)
[3] = target: PINK1 (UniProt Q9BXM7); experiment: as above
[4] = target: PARK7 (UniProt Q99497); experiment: as above
[5] = target: TDP43 (UniProt Q13148); experiment: as above
[6] = target: PARK2 (UniProt O60260); experiment: as above
[7] = target: RAB7A (human) (UniProt P51149); experiment: co-IP with anti-Flag beads and immunoblot; HEK293T cells co-transfected with HA-Beclin 2 and Flag-tagged SNARE or RAB proteins (FIG. 32A)
[8] = target: T1, RAB32 (human); experiment: as above
[9] = target: APP (UniProt P05067); experiment: co-IP with anti-FLAG beads and western blot in transfected 293T cells (FIG. 37A)
[10] = target: MKK2 (UniProt P36507); experiment: co-IP with anti-Flag beads and immunoblot; 293T cells co-transfected with Flag-Beclin 2 and an HA-tagged plasmid (FIG. 8A)
[11] = target: T2, MKK3; experiment: as above
[12] = target: MKK1 (UniProt Q02750); experiment: as above
[13] = target: APP (UniProt P05067); experiment: co-IP with anti-FLAG beads and western blot (anti-FLAG, anti-HA); 293T cells transfected with BECN2 along with APP, 36 h (FIG. 37A)
[14] = target: NLRC4 (human) (UniProt Q9NPP4); experiment: summary of Example 1; co-IP in HEK293T cells
[15] = target: RAB7A (human) (UniProt P51149); experiment: co-IP with anti-Flag beads and immunoblot; 293T cells co-transfected with HA-Beclin 2 and a Flag-tagged plasmid (FIG. 13C)
[16] = target: T1, RAB32 (human); experiment: as above
[17] = target: T3, MEKK3 (mitogen-activated protein kinase kinase kinase 3); experiment: co-IP with anti-Flag beads and immunoblot; 293T cells transfected with the indicated Flag-tagged plasmid (FIG. 12B)
[18] = target: T3, MEKK3 (mitogen-activated protein kinase kinase kinase 3); experiment: discussion of Example 1; co-IP in 293T cells

| binding [1] | binding [2] | binding [3] | binding [4] | binding [5] | binding [6] | binding [7] | binding [8] | binding [9] | binding [10] | binding [11] | binding [12] | binding [13] | binding [14] | binding [15] | binding [16] | binding [17] | binding [18] | Binder |
| --- | --- | --- | --- | --- | --- | --- | --- | --- | --- | --- | --- | --- | --- | --- | --- | --- | --- | --- |
| binds | binds | binds | binds | binds | binds | binds | binds | binds | binds | binds | binds | binds | binds | binds | binds |  |  | Beclin 2 (human, full length) (protein) MSSIRFLCQRCHQALKLSGSSESRSLPAAPAPTSGQAEPGDTREPGVTTREVTDAEEQQDGASSRSPPGDGSVSKGHANIFTLLGELGAMHMLSSIQKAAGDIFDIVSGQAVVDHPLCEECTDSLLEQLDIQLALTEADSQNYQRCLETGELATSEDEAAALRAELRDLELEEARLVQELEDVDRNNARAAADLQAAQAEAAELDQQERQHYRDYSALKRQQLELLDQLGNVENQLQYARVQRDRLKEINCFTATFEIWVEGPLGVINNFRLGRLPTVRVGWNEINTAWGQAALLLLTLANTIGLQFQRYRLIPCGNHSYLKSLTDDRTELPLFCYGGQDVFLNNKYDRAMVAFLDCMQQFKEEAEKGELGLSLPYGIQVETGLMEDVGGRGECYSIRTHLNTQELWTKALKFMLINFKWSLIWVASRYQK |
|  |  |  |  |  |  |  |  |  |  |  |  |  |  |  |  | binds | binds | ATG9A (human) (protein, UniProt Q7Z3C6 1-839, looked up) MAQFDTEYQRLEASYSDSPPGEEDLLVHVAEGSKSPWHHIENLDLFFSRVYNLHQKNGFTCMLIGEIFELMQFLFVVAFTTFLVSCVDYDILFANKMVNHSLHPTEPVKVTLPDAFLPAQVCSARIQENGSLITILVIAGVFWIHRLIKFIYNICCYWEIHSFYLHALRIPMSALPYCTWQEVQARIVQTQKEHQICIHKRELTELDIYHRILRFQNYMVALVNKSLLPLRFRLPGLGEAVFFTRGLKYNFELILFWGPGSLFLNEWSLKAEYKRGGQRLELAQRLSNRILWIGIANFLLCPLILIWQILYAFFSYAEVLKREPGALGARCWSLYGRCYLRHFNELEHELQSRLNRGYKPASKYMNCFLSPLLTLLAKNGAFFAGSILAVLIALTIYDEDVLAVEHVLTTVTLLGVTVTVCRSFIPDQHMVFCPEQLLRVILAHIHYMPDHWQGNAHRSQTRDEFAQLFQYKAVFILEELLSPIVTPLILIFCLRPRALEIIDFFRNFTVEVVGVGDTCSFAQMDVRQHGHPQWLSAGQTEASVYQQAEDGKTELSLMHFAITNPGWQPPRESTAFLGFLKEQVQRDGAAASLAQGGLLPENALFTSIQSLQSESEPLSLIANVVAGSSCRGPPLPRDLQGSRHRAEVASALRSFSPLQPGQAPTGRAHSTMTGSGVDARTASSGSSVWEGQLQSLVLSEYASTEMSLHALYMHQLHKQQAQAEPERHVWHRRESDESGESAPDEGGEGARAPQSIPRSASYPCAAPRPGAPETTALHGGFQRRYGGITDPGTVPRVPSHFSRLPLGGWAEDGQSASRHPEPVPEEGSEDELPPQVHKV |
